The record followed here is doi:10.1101/2025.11.28.691250.

For assay [1], the target named is T1, X chromosome-associated protein 5 (Xap5) (mouse (endogenous in NIH/3T3)) (UniProt Q9WV03).
T1 sequence: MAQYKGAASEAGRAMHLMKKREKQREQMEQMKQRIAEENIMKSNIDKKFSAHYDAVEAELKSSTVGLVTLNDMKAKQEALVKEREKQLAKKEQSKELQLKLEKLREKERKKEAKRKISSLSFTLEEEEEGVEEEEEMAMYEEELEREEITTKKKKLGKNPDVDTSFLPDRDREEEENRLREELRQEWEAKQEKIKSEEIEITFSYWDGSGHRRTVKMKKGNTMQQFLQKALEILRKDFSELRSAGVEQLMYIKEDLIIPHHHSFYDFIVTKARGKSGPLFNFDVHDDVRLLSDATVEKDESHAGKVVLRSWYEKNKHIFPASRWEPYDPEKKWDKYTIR
The assay can be described thus: affinity purification with mass spectrometry.

The target in assay [2] is T1, X chromosome-associated protein 5 (Xap5) (mouse (endogenous in NIH/3T3)). The assay can be described thus: affinity purification with mass spectrometry. The source holds these as a separate data set.

Read-outs that look alike come from different tables or passages of the source. These are yes or no findings as the source states them, for the method shown. Binding seen in cells or lysates may run through a third protein. Here binding means that the protein was enriched with, or labelled near, the bait; the list need not be complete.

With H2afx (from UniProt P27661 1-143), the binding result in assay [1] is recorded as “binds”.

B1: Sfpq (protein, UniProt Q8VIJ6 1-699)
chain: MSRDRFRSRGGGGGGFHRRGGGGGRGGLHDFRSPPPGMGLNQNRGPMGPGPGGPKPPLPPPPPHQQQQQPPPQQPPPQQPPPHQQPPPHQPPHQQPPPPPQESKPVVPQGPGSAPGVSSAPPPAVSAPPANPPTTGAPPGPGPTPTPPPAVPSTAPGPPPPSTPSSGVSTTPPQTGGPPPPPAGGAGPGPKPGPGPGGPKGGKMPGGPKPGGGPGMGAPGGHPKPPHRGGGEPRGGRQHHAPYHQQHHQGPPPGGPGPRTEEKISDSEGFKANLSLLRRPGEKTYTQRCRLFVGNLPADITEDEFKRLFAKYGEPGEVFINKGKGFGFIKLESRALAEIAKAELDDTPMRGRQLRVRFATHAAALSVRNLSPYVSNELLEEAFSQFGPIERAVVIVDDRGRSTGKGIVEFASKPAARKAFERCSEGVFLLTTTPRPVIVEPLEQLDDEDGLPEKLAQKNPMYQKERETPPRFAQHGTFEYEYSQRWKSLDEMEKQQREQVEKNMKDAKDKLESEMEDAYHEHQANLLRQDLMRRQEELRRMEELHSQEMQKRKEMQLRQEEERRRREEEMMIRQREMEEQMRRQREESYSRMGYMDPRERDMRMGGGGTMNMGDPYGSGGQKFPPLGGGGGIGYEANPGVPPATMSGSMMGSDMRTERFGQGGAGPVGGQGPRGMGPGTPAGYGRGREEYEGPNKKPRF
For the molecule B1, the binding result in assay [2] is on record as “binds”.

B2: Non-POU domain-containing octamer-binding protein (Nono) (protein, UniProt Q99K48 1-473)
chain: MQSNKAFNLEKQNHTPRKHHQHHHQQHHQQQQQQQQQQPPPPIPANGQQASSQNEGLTIDLKNFRKPGEKTFTQRSRLFVGNLPPDITEEEMRKLFEKYGKAGEVFIHKDKGFGFIRLETRTLAEIAKVELDNMPLRGKQLRVRFACHSASLTVRNLPQYVSNELLEEAFSVFGQVERAVVIVDDRGRPSGKGIVEFSGKPAARKALDRCSEGSFLLTTFPRPVTVEPMDQLDDEEGLPEKLVIKNQQFHKEREQPPRFAQPGSFEYEYAMRWKALIEMEKQQQDQVDRNIKEAREKLEMEMEAARHEHQVMLMRQDLMRRQEELRRMEELHNQEVQKRKQLELRQEEERRRREEEMRRQQEEMMRRQQEGFKGTFPDAREQEIRMGQMAMGGAMGINNRGAMPPAPVPPGTPAPPGPATMMPDGTLGLTPPTTERFGQAATMEGIGAIGGTPPAFNRPAPGAEFAPNKRRRY
As for B2, in assay [2], the binding result is “binds”.
